These are yes or no findings as the source states them, for the method shown. Some entries that bind do so weakly or less than the wild type.
Assays:
[1] = molecular target: T1, FtsZ from Pseudomonas aeruginosa (P. aeruginosa, UniProt P47204 1-394); assay: negative stain electron microscopy; HEK buffer (50 mM HEPES, 100 mM KAc, 1 mM EDTA, pH 7.5), GTP, room temperature; 10 µM PaFtsZ alone; both purified
T1 construct: FtsZ, Pseudomonas aeruginosa; cloned in pET15b at NdeI/BamHI; Forms protofilaments and bundles with GTP; also called PaFtsZ; source: E. coli BL21 (pET15b), purified (Talon column, thrombin, source Q 10/10)
T1 sequence (looked up): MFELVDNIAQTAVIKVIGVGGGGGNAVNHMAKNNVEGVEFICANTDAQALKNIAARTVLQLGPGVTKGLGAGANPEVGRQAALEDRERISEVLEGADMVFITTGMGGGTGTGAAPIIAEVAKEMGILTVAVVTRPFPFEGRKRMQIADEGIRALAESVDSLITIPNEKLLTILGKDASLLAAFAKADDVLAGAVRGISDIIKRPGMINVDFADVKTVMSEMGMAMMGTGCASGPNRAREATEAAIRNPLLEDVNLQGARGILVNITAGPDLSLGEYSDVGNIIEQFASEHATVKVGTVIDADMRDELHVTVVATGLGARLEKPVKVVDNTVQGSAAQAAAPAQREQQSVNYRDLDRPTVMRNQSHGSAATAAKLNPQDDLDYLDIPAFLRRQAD

[2] = molecular target: T1, FtsZ from Pseudomonas aeruginosa; assay: condition: only in HEK buffer (1 mM EDTA, no Mg, pH 7.5); 5 µM PaFtsZ with 10 µM ZapA; negative stain electron microscopy; HEK buffer (50 mM HEPES, 100 mM KAc, 1 mM EDTA, pH 7.5), GTP, room temperature; 5 µM PaFtsZ with 10 µM ZapA; both purified
[3] = molecular target: T1, FtsZ from Pseudomonas aeruginosa; assay: condition: only in HEK buffer (1 mM EDTA, no Mg, pH 7.5); 10 µM PaFtsZ; negative stain electron microscopy; HEK buffer (50 mM HEPES, 100 mM KAc, 1 mM EDTA, pH 7.5), GTP, room temperature; 10 µM PaFtsZ alone; both purified

binding [1]: binds weakly
binding [2]: no binding
binding [3]: no binding
Substance: FtsZ from Pseudomonas aeruginosa (from UniProt P47204 1-394)

From PMC7721900, “Assembly properties of bacterial tubulin homolog FtsZ regulated by the positive regulator protein ZipA and ZapA from Pseudomonas aeruginosa” (Scientific Reports, 2020)
